# Reference: patent US11142526B2, “Spirocycle compounds and methods of making and using same” (H. Lundbeck A/S, priority 2017, dated 2021)
# Protein sequences, listed by entry. Tags and fused reporters are not part of them.
# UniProt O35678, whole entry: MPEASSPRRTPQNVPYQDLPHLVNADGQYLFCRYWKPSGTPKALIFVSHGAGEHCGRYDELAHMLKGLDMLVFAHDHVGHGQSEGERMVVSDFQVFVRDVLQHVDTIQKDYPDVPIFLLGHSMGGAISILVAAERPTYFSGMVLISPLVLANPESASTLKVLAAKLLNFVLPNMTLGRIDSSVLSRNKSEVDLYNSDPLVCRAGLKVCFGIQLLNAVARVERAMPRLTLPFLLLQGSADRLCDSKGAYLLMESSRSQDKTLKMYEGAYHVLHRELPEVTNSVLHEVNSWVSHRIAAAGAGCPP
# For at least one compound, name, drawing or mass did not settle the structure.
# Biological target: MAGL (Mus musculus (Mouse), UniProt O35678)
# Experiment: Mouse brain proteomes from inhibitor treated mice (oral gavage, brain MAGL activity 4 h after administration)
# Format: in vivo
# Conditions: 5 mg/kg oral gavage
# Description: Preparation of Mouse Brain Proteomes from Inhibitor Treated Mice.
# Inhibitors were administered to wild-type C57B1/6J by oral gavage in a vehicle of polyethylene glycol.
row,SMILES,MAGL % Inhibition at 5 mg/kg (Mouse)
1,"Cc1ccc2cc(C(=O)N3CCCC34CCN(C(=O)OC(C(F)(F)F)C(F)(F)F)CC4)sc2c1 [Example 59, 1,1,1,3,3,3-Hexafluoropropan-2-yl 1-(6-methylbenzo[b]thiophene-2-carbonyl)-1,8-diazaspiro[4.5] decane-8-carboxylate]",### (% inhibition is greater than or equal to 75%)
2,"COc1cccc2cc(CN3CCCC34CCN(C(=O)OC(C(F)(F)F)C(F)(F)F)CC4)[nH]c12 [Example 53, 1,1,1,3,3,3-Hexafluoropropan-2-yl 1-((7-methoxy-1H-indol-2-yl)methyl)-1,8-diazaspiro[4.5] decane-8-carboxylate]",### (% inhibition is greater than or equal to 75%)
3,"O=C(OC(C(F)(F)F)C(F)(F)F)N1CCC2(CCCN2C(=O)c2cc3ccc(F)cc3s2)CC1 [Example 103, 1,1,1,3,3,3-Hexafluoropropan-2-yl 1-(6-fluorobenzo[b]thiophene-2-carbonyl)-1,8-diazaspiro[4.5] decane-8-carboxylate]",### (% inhibition is greater than or equal to 75%)
4,"Cc1c(CN2CCCC23CCN(C(=O)OC(C(F)(F)F)C(F)(F)F)CC3)[nH]c2ccc(Cl)cc12 [Example 48, 1,1,1,3,3,3-Hexafluoropropan-2-yl 1-((5-chloro-3-methyl-1H-indol-2-yl)methyl)-1,8-diazaspiro[4.5] decane-8-carboxylate]",### (% inhibition is greater than or equal to 75%)
